This is one part of the list.
What was measured:
Test in all cases: log2 fold change, soluble protein after heating vs DMSO (PISA); higher = thermal stabilisation; K562 lysate, 10 uM; active = over 0.2 and 3.5 SD of the protein, either way, in both replicates (recomputed)
[1] = compound: C/C(=N\NC(=O)C1=CC(=CC=C1)S(=O)(=O)N2CCOCC2)/C3=C(C=CC(=C3)Cl)O
Method in brief: (§1)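 K562 pellets were dounce-homogenised in PBS pH 7.4 with 1 mM MgCl2, and the crude extract at 1 mg/mL protein was treated with 10 μM compound for 30 min. Aliquots were heated for 3 min across 48°C-58°C, pooled, and brought to 0.5% NP-40 at 4°C; soluble protein was the supernatant after 21,000xg for 90 min. Soluble protein was quantified by TMTpro 16plex LC-MS/MS with channel sums equalised, and reported as log2 fold change in thermal stability against DMSO controls, with values from duplicates.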

Amino acid sequences for entries named in this document (tags omitted). A change or cut given only in a name is not applied to a line headed by its entry.
UniProt Q9UBS3: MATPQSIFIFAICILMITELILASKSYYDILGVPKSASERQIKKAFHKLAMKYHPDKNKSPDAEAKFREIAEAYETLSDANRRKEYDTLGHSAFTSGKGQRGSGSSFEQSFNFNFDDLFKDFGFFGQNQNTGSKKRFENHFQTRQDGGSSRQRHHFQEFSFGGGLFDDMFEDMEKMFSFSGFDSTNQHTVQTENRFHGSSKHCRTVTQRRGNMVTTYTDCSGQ
UniProt Q6Y2X3: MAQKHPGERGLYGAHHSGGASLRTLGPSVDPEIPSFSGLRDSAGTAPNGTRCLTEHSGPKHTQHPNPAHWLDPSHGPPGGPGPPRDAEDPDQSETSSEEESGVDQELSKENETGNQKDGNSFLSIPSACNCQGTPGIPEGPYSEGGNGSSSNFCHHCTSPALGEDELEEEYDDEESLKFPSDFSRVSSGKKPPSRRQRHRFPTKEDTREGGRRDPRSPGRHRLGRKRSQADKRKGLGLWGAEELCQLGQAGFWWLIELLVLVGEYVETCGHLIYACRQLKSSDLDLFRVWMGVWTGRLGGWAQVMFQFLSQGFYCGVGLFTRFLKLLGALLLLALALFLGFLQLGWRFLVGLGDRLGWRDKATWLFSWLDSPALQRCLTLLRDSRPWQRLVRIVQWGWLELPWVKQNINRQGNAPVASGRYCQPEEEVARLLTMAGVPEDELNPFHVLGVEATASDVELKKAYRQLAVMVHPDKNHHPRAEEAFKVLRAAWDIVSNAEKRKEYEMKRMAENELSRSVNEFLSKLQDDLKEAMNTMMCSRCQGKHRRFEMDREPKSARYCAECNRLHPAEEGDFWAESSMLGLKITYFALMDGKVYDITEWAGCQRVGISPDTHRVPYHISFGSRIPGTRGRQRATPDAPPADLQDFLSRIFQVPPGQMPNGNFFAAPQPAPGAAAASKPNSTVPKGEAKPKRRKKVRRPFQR
UniProt Q9BY27: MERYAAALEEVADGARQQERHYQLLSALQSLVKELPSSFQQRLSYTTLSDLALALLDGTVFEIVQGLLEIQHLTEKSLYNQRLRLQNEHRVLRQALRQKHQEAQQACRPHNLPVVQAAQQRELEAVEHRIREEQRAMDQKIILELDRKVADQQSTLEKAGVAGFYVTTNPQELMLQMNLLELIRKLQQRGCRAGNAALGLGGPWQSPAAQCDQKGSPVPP
UniProt Q07687: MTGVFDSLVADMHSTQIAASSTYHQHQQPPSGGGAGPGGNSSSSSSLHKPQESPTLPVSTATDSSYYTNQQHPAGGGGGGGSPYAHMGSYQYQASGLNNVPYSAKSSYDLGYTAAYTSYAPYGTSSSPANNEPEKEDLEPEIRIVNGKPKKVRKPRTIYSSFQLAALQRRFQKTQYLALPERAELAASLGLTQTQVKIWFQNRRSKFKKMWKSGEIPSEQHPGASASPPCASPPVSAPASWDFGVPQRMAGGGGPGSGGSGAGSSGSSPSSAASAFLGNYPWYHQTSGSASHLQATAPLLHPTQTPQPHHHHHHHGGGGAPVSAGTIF
UniProt Q9H6R0: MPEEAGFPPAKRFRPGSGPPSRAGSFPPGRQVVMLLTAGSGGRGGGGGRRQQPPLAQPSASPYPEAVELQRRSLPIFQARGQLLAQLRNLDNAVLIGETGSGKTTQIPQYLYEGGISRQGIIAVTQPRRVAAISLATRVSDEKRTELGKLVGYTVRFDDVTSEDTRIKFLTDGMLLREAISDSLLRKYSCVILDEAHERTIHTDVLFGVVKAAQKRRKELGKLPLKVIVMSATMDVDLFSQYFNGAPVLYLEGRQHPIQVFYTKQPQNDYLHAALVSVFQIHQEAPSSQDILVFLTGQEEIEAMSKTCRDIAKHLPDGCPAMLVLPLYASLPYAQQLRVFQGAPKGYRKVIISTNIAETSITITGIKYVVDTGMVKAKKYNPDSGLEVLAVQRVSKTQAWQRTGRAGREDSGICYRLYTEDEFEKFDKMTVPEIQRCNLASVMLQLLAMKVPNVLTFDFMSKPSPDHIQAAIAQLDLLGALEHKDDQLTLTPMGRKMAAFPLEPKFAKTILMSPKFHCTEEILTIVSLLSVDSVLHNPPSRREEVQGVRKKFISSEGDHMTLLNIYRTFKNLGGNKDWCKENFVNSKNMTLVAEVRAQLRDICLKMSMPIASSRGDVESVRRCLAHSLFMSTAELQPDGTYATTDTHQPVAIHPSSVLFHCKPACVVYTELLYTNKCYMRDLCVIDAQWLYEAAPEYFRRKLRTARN
UniProt Q9UGM3: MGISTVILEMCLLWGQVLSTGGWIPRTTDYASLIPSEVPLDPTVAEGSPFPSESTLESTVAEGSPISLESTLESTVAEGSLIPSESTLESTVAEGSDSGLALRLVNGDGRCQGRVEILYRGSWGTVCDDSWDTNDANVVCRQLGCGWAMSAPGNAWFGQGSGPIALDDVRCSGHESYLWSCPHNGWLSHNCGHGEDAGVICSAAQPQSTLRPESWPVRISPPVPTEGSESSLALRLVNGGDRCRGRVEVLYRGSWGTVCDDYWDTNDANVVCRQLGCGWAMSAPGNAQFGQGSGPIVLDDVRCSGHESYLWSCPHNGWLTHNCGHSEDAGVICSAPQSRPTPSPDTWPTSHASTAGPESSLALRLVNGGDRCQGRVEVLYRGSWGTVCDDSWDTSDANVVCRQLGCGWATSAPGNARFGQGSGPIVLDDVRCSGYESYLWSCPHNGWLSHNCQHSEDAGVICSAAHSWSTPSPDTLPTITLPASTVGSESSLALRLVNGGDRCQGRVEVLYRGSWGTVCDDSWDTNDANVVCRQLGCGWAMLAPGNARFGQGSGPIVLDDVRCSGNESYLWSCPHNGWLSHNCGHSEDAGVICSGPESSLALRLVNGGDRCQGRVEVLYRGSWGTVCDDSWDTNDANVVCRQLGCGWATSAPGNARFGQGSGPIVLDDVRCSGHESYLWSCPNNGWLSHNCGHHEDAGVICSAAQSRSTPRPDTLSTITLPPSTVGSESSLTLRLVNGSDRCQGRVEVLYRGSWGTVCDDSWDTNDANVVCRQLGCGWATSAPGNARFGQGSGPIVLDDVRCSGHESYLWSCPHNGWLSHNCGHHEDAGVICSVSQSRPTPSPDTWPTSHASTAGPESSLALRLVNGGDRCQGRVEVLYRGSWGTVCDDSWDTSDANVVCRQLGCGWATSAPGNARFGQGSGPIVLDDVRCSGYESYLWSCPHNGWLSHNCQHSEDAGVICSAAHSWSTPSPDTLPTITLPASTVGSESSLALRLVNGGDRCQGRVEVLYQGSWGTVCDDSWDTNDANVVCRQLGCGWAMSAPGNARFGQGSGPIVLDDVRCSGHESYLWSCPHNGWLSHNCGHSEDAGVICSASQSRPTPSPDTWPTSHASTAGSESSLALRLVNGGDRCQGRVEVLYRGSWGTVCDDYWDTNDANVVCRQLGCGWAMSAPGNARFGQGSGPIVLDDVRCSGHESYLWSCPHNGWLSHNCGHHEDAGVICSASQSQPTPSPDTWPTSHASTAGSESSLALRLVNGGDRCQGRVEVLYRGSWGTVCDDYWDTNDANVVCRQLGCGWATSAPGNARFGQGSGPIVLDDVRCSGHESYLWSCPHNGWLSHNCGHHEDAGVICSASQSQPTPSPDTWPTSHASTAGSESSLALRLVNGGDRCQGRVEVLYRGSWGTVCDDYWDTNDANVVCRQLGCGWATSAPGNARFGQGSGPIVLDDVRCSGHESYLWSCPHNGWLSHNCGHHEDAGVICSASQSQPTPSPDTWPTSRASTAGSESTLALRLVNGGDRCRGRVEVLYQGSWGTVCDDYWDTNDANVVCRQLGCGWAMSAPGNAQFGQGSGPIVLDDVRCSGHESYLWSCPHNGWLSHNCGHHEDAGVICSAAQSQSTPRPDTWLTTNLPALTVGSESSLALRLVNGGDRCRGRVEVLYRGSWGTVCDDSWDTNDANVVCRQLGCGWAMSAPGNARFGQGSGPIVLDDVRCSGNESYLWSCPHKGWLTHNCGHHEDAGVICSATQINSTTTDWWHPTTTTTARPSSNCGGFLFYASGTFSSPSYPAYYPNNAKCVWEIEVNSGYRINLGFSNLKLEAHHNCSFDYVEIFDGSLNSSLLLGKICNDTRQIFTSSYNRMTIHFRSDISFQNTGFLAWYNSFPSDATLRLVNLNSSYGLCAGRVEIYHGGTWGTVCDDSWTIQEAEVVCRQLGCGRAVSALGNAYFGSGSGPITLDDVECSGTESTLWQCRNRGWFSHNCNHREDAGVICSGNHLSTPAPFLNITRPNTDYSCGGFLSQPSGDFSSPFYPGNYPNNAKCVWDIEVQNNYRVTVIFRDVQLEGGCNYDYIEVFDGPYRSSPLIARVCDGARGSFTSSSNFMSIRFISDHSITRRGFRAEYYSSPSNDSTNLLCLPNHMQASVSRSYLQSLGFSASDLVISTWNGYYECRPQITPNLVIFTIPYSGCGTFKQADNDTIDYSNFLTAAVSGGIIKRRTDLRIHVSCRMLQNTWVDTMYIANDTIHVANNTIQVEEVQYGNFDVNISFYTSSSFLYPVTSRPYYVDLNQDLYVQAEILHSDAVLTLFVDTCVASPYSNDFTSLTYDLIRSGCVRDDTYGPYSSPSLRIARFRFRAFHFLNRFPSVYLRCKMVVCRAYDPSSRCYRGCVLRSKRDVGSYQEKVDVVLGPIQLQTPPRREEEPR
UniProt Q15398: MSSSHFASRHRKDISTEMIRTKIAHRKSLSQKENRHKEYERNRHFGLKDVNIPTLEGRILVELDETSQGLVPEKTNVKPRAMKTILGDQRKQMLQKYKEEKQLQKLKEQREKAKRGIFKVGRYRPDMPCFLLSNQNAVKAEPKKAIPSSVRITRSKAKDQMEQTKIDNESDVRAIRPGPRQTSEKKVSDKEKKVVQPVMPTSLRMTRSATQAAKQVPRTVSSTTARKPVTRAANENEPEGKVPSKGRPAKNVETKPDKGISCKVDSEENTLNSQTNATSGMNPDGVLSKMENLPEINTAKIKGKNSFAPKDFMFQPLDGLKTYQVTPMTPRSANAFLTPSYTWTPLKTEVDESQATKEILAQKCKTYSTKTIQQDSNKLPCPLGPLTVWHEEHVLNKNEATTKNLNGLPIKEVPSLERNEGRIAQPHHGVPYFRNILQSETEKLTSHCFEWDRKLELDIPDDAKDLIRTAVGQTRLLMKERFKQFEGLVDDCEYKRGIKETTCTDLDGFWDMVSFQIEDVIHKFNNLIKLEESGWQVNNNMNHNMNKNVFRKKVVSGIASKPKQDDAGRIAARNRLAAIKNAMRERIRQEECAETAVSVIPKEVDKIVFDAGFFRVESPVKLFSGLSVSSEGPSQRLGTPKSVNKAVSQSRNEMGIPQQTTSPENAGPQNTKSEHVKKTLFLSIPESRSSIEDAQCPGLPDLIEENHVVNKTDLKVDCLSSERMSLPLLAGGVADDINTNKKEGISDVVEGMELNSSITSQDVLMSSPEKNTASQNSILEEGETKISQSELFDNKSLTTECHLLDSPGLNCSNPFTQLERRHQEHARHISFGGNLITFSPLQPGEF
UniProt Q96GE9: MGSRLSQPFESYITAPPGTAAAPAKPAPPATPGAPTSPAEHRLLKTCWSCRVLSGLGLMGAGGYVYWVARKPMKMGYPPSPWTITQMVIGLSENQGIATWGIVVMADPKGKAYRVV

[2] = compound: C1=CC2=C(C=CC(=C2)/C=C\3/C(=O)NC(=NCC4=CC=CS4)S3)N=C1
Method in brief: as §1

[3] = compound: C1=CC2=NC=CN=C2C=C1/C=C/3\C(=O)NC(=O)S3
Method in brief: as §1

[4] = compound: C1=CC=C2C(=C1)C3=NNC4=CC=CC(=C43)C2=O
Method in brief: as §1

[5] = compound: C1CCN(C1)C(=O)NC2=CC=CC(=C2)NC3=NC=C(C(=N3)NCCC4=CN=CN4)Br
Method in brief: as §1

[6] = compound: C1CN(CCC1(CC2=CC=C(C=C2)Cl)N)C3=NC=NC4=C3C=CN4
Method in brief: as §1

ibrutinib = compound: C=CC(=O)N1CCC[C@@H](n2nc(-c3ccc(Oc4ccccc4)cc3)c3c(N)ncnc32)C1 [ibrutinib]
Method in brief: as §1

[7] = compound: CC(=O)c1cnc2ccc(-c3cc(Cl)c(O)c(Cl)c3)nc2c1N[C@H]1CC[C@H](CN(C)C)CC1
Method in brief: as §1

[8] = compound: CC1=C(C(CC(=O)N1)C2=CC=C(C=C2)C(F)(F)F)C(=O)NC3=C(C=C4C(=C3)C=NN4)F
Method in brief: as §1

[9] = compound: CC1=CC=C(C=C1)SC2=C3C=C(SC3=CN=C2)C(=O)N
Method in brief: as §1

erlotinib = compound: C#Cc1cccc(Nc2ncnc3cc(OCCOC)c(OCCOC)cc23)c1 [erlotinib]
Method in brief: as §1

[10] = compound: C1=CC(=CC=C1C2=NC3=C(N2)C=C(C=C3)C(=O)N)OC4=CC=C(C=C4)Cl
Method in brief: as §1

[11] = compound: CC(C)C1=C2N=C(C=C(N2N=C1)NCC3=CC=CC=C3)NCCCCCCN
Method in brief: as §1

[12] = compound: CC1=C(C2=C(C=C1)C(=O)C3=CC=CC=C3N2CCCN)C
Method in brief: as §1

[13] = compound: C1=CC=C(C=C1)C2=NC(=C(N2)C3=CC=NC=C3)C4=CC(=C(C=C4)Cl)O
Method in brief: as §1

IRAK-1-4 Inhibitor I = compound: C1COCCN1CCN2C3=CC=CC=C3N=C2NC(=O)C4=CC(=CC=C4)[N+](=O)[O-] [IRAK-1-4 Inhibitor I]
Method in brief: as §1

ralimetinib = compound: CC(C)(C)Cn1c(N)nc2ccc(-c3[nH]c(C(C)(C)C)nc3-c3ccc(F)cc3)nc21 [ralimetinib]
Method in brief: as §1

[14] = compound: CC(C)(O)CC(=O)NCCn1ccc2ncnc(Nc3ccc(Oc4cccc(C(F)(F)F)c4)c(Cl)c3)c21
Method in brief: as §1

[15] = compound: CC1=C(C=C(C=C1)NC(=O)C2=CC(=CC=C2)C(C)(C)C#N)NC3=CC4=C(C=C3)N=CN(C4=O)C
Method in brief: as §1

[16] = compound: CC1=C(C=C(C=C1)NC(=O)C2=CC(=CC=C2)N(C)C)NC(=O)C3=CC=C(C=C3)O
Method in brief: as §1

Measured: log2 fold change

DNPEP (UniProt C9JBE1)
inactive: [1] 0.011 | [2] -0.061 | [3] -0.02 | [4] -0.206 | [5] -0.003 | [6] -0.079 | ibrutinib -0.056 | [7] -0.048 | [8] -0.021 | [9] -0.042

DOCK11, A0A0J9YW64
inactive: [3] -0.106 | ibrutinib 0.036 | [8] 0.144

DOCK5 (UniProt Q9H7D0)
inactive: [7] 0.149 | [9] 0.042

DNMT3A (UniProt Q9Y6K1)
inactive: erlotinib -0.055 | [10] 0.103 | [7] -0.309 | [11] -0.021 | [9] -0.106

DLG5 (UniProt Q8TDM6)
inactive: [1] -0.202 | [2] -0.12 | [3] 0.034 | [4] -0.115 | ibrutinib -0.056 | [12] -0.128

DNAJB9 (UniProt Q9UBS3)
inactive: erlotinib 0.014 | [10] 0 | [13] -0.019 | IRAK-1-4 Inhibitor I -0.416 | [7] -0.09 | ralimetinib -0.018 | [14] -0.047 | [11] -0.063 | [12] -0.013 | [15] -0.368 | [16] -0.045 | [9] -0.07

DLG1 isoform 3 (UniProt Q12959)
inactive: [3] -0.078 | [13] -0.093 | IRAK-1-4 Inhibitor I 0.001 | ibrutinib 0.1 | ralimetinib 0.111 | [14] -0.084 | [16] 0.125

DNAH12 (UniProt Q6ZR08)
inactive: [1] 0.112 | [2] -0.041 | [3] -0.089 | [4] -0.101 | ibrutinib -0.106 | [12] 0.367

DOCK6 (UniProt Q96HP0)
inactive: erlotinib 0.179 | [10] 0.057 | [11] -0.197 | [12] -0.243

DNPEP (UniProt B9ZVU2)
inactive: erlotinib -0.035 | [10] -0.022 | [13] -0.014 | [5] -0.015 | [6] 0.063 | IRAK-1-4 Inhibitor I 0.037 | [7] 0.052 | ralimetinib 0.012 | [14] -0.055 | [11] 0.041 | [8] 0.009 | [12] -0.012 | [15] -0.029 | [16] -0.02 | [9] -0.077

DOP1A (UniProt Q5JWR5)
inactive: [3] 0.002 | [5] 0.051 | [6] -0.005 | ibrutinib 0.047 | [8] 0.036 | [12] -0.038 | [15] -0.016

DNAJC14 (UniProt Q6Y2X3)
inactive: [13] -0.089 | [5] 0.275 | [6] 0.054 | IRAK-1-4 Inhibitor I 0.106 | ralimetinib 0.096 | [14] -0.12 | [12] -0.024 | [16] 0.035

DNLZ (UniProt Q5SXM8)
inactive: erlotinib -0.101 | [10] -0.036 | [13] -0.025 | IRAK-1-4 Inhibitor I -0.01 | [7] -0.155 | ralimetinib 0.031 | [14] -0.082 | [11] 0.047 | [8] -0.067 | [16] -0.109 | [9] -0.124

DGCR6L (UniProt Q9BY27)
inactive: [13] -0.059 | IRAK-1-4 Inhibitor I 0.025 | ralimetinib 0.148 | [14] 0.05 | [8] 0 | [15] 0.044 | [16] -0.067

DOP1B (UniProt Q9Y3R5)
inactive: [1] -0.124 | [2] -0.07 | [4] -0.024 | [7] -0.037 | [15] 0.078 | [9] -0.084

DMD isoform 14 (UniProt P11532)
inactive: [3] -0.038 | [13] -0.007 | IRAK-1-4 Inhibitor I -0.119 | ibrutinib 0.25 | ralimetinib 0.078 | [14] 0.079 | [12] 0.121 | [15] 0.034 | [16] 0.09

DLX2 (UniProt Q07687)
inactive: erlotinib 0.154 | [10] 0.109 | [13] -0.08 | IRAK-1-4 Inhibitor I 0.129 | ralimetinib 0.036 | [14] -0.013 | [11] 0.021 | [16] 0.106

DLC1 (UniProt Q96QB1)
inactive: [3] -0.078 | [13] -0.024 | [5] -0.116 | [6] -0.039 | IRAK-1-4 Inhibitor I -0.072 | ibrutinib 0 | ralimetinib 0.052 | [14] -0.01 | [15] 0.069 | [16] -0.031

DNM2 isoform 4 (UniProt P50570)
inactive: erlotinib 0.099 | [10] 0.107 | [13] 0.072 | [5] -0.11 | [6] -0.011 | IRAK-1-4 Inhibitor I 0.133 | [7] -0.018 | ralimetinib 0.011 | [14] -0.027 | [11] -0.143 | [8] -0.07 | [12] 0.075 | [15] -0.08 | [16] 0.047 | [9] 0.058

DHX33 (UniProt Q9H6R0)
inactive: [7] 0.002 | [12] -0.082 | [9] -0.051

DMBT1 isoform 6 (UniProt Q9UGM3)
inactive: [1] 2.26 | [2] 0.311 | [4] -0.385 | [5] -0.038 | [6] -0.239 | [8] 2.46

DIPK1A (UniProt Q5T7M9)
inactive: [5] 0.039 | [6] -0.059

DNMT1 (UniProt P26358)
inactive: [3] -0.058 | [13] 0.044 | IRAK-1-4 Inhibitor I -0.007 | ibrutinib -0.146 | ralimetinib -0.09 | [14] -0.05 | [8] -0.085 | [15] 0.119 | [16] 0.143

DNAJB14 (UniProt H7C494)
inactive: [13] -0.034 | IRAK-1-4 Inhibitor I -0.05 | ralimetinib 0.087 | [14] -0.192 | [15] -0.035 | [16] 0.012

DHPS (UniProt M0R1T2)
inactive: [8] 0.11

DNMT3B (UniProt Q9UBC3)
inactive: [1] -0.162 | [2] 0 | [13] 0.063 | [4] -0.053 | [5] 0.166 | [6] -0.18 | IRAK-1-4 Inhibitor I -0.065 | ralimetinib 0.163 | [14] -0.134 | [8] -0.121 | [16] 0.154

Reprinted from above (two entries):
DHPS (UniProt M0R1T2)
inactive: [8] 0.11

DNMT3B (UniProt Q9UBC3)
inactive: [1] -0.162 | [2] 0 | [13] 0.063 | [4] -0.053 | [5] 0.166 | [6] -0.18 | IRAK-1-4 Inhibitor I -0.065 | ralimetinib 0.163 | [14] -0.134 | [8] -0.121 | [16] 0.154

Following part

DNAJC16 (UniProt Q9Y2G8)
inactive: [3] -0.069 | [13] -0.069 | IRAK-1-4 Inhibitor I -0.327 | ibrutinib -0.155 | ralimetinib -0.031 | [14] 0.251 | [8] 0.062 | [12] 0.258 | [15] 0.024 | [16] 0.329

DNAJC19, A0A2R8Y839
inactive: [8] -0.175 | [15] 0.207

DNASE1L1 (UniProt P49184)
inactive: [13] 0.007 | IRAK-1-4 Inhibitor I 0.098 | [7] -0.088 | ralimetinib 0.002 | [14] 0.155 | [8] -0.247 | [16] -0.081 | [9] -0.044

DLGAP5 isoform 3 (UniProt Q15398)
inactive: [3] -0.009 | ibrutinib -0.076 | [12] 0.233

DGLUCY isoform 2 (UniProt Q7Z3D6)
inactive: [15] 0.004

DMAC1 (UniProt Q96GE9)
inactive: [1] 0.025 | [2] 0.056 | [13] -0.088 | [4] -0.18 | IRAK-1-4 Inhibitor I -0.041 | ralimetinib 0.064 | [14] -0.19 | [16] 0.205

Reference: the supplement of paper PMC10849652
